Measurements as given in the supplement of paper PMC10373366.
Structures can show the parent of a compound that is named as a salt. The list shows a part of the results. Single values are uncertain, as repeats are few or missing.

Assays:
A2780 = assay: cell growth inhibition ratio vs untreated control (CCK8); higher = stronger inhibition of cell viability; settings: 10 µM; 48 h
Protocol: (§1)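 Natural product library (Topscience) screened at 10 µM final concentration for 48 h on ovarian cancer A2780 cells and patient-derived ovarian cancer cells (PDC) in 96-well plates; viability read by CCK8 and reported as inhibition ratio (%) relative to untreated control. Single-dose primary screen.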

[1] = system: patient-derived ovarian cancer cells (PDC); assay: as above; settings: 10 µM; 48 h
Protocol: as §1

Structure (SMILES)	cell growth inhibition ratio (A2780) [%]	cell growth inhibition ratio [1] [%]
N[C@@H](Cc1cc(I)c(O)c(I)c1)C(=O)O [3,5-Diiodotyrosine Dihydrate]	13.1	-12
CC[C@@]1(O)C(=O)OCc2c1cc1n(c2=O)Cc2cc3c(CN(C)C)c(O)ccc3nc2-1 [Topotecan hydrochloride]	81.8	76.8
COc1ccc([C@@H]2CC(=O)c3c(O)cc(O[C@@H]4O[C@H](CO)[C@@H](O)[C@H](O)[C@H]4O[C@@H]4O[C@@H](C)[C@H](O)[C@@H](O)[C@H]4O)cc3O2)cc1O [Neohesperidin]	0.643	-29.4
C1CCN2C[C@@H]3C[C@@H](CN4CCCC[C@@H]34)[C@H]2C1 [(-)-Sparteine sulfate pentahydrate]	7.7	-2.76
COC1=CC(=O)C[C@@H](C)[C@]12Oc1c(Cl)c(OC)cc(OC)c1C2=O [Griseofulvin]	72.9	56
COc1ccc2[nH]cc(CCNC(C)=O)c2c1 [Melatonine]	2.34	-47
COc1cc2c3cc1Oc1c(OC)c(OC)cc4c1[C@@H](Cc1ccc(O)c(c1)Oc1ccc(cc1)C[C@@H]3N(C)CC2)N(C)CC4 [Berbamine dihydrochloride]	43.3	-39.6
OC[C@@H](O)[C@@H](O)[C@H](O)[C@H](O)CO [D-Mannitol]	11.8	1.14
COc1cc2c(c(OC)c1OC)-c1c(cc3c(c1OC)OCO3)C[C@H](C)[C@](C)(O)[C@H]2OC(=O)c1ccccc1 [Schisantherin A]	-2.44	7.22
O=C(O)c1cc(O)c2c(c1)C(=O)c1cccc(O)c1C2=O [Rheic Acid]	-0.92	-5.12
C=C(C)[C@@H]1CC[C@]2(C(=O)O)CC[C@]3(C)[C@H](CC[C@@H]4[C@@]5(C)CC[C@H](O)C(C)(C)[C@@H]5CC[C@]43C)[C@@H]12 [Betulinic acid]	7.15	-1.74
O=c1cc(-c2ccc(O)cc2)oc2cc(O)c(O)c(O)c12 [Scutellarein]	7.41	-10.5
CCOC(=O)/C=C/c1ccc(O)c(OC)c1 [Ethyl ferulate]	-10.8	9.32
C=C(NC(=O)C(=C)NC(=O)c1csc(C2=N[C@@H]3c4csc(n4)[C@H]4NC(=O)c5csc(n5)[C@H]([C@](C)(O)[C@@H](C)O)NC(=O)[C@H]5CSC(=N5)/C(=C/C)NC(=O)[C@H]([C@@H](C)O)NC(=O)c5csc(n5)[C@]3(CC2)NC(=O)[C@H](C)NC(=O)C(=C)NC(=O)[C@H](C)NC(=O)[C@H]([C@@H](C)CC)N[C@@H]2C=Cc3c([C@H](C)O)cc(nc3[C@H]2O)C(=O)O[C@@H]4C)n1)C(N)=O [Thiostrepton]	5.5	-4.65
CC1(C)[C@@H](O)CC[C@]2(C)[C@H]3C(=O)C=C4[C@@H]5C[C@@](C)(C(=O)O)CC[C@]5(C)CC[C@@]4(C)[C@]3(C)CC[C@@H]12 [Enoxolone]	11.8	-1.1
COc1ccc(-c2oc3c(CC=C(C)C)c(O[C@@H]4O[C@H](CO)[C@@H](O)[C@H](O)[C@H]4O)cc(O)c3c(=O)c2O[C@@H]2O[C@@H](C)[C@H](O)[C@@H](O)[C@H]2O)cc1 [Icariin]	11	-1.06
C[N+](C)(C)CC(O)CC(=O)[O-] (stereo not drawn) [L(-)-Carnitine]	4.6	9.27
Cc1ncc(CO)c(CO)c1O [Pyridoxine]	2.73	-6.15
NC(N)=O	-1.56	-6.3
COc1ccc([C@@H]2CC(=O)c3c(O)cc(O[C@@H]4O[C@H](CO[C@@H]5O[C@@H](C)[C@H](O)[C@@H](O)[C@H]5O)[C@@H](O)[C@H](O)[C@H]4O)cc3O2)cc1O [Hesperidin]	-7.94	6.47
O=C(O)c1ccc(O)cc1 [4-Hydroxybenzoic acid]	-8.56	7.49
COc1ccc(-c2cc(=O)c3c(O)cc(O[C@@H]4O[C@H](CO[C@@H]5O[C@@H](C)[C@H](O)[C@@H](O)[C@H]5O)[C@@H](O)[C@H](O)[C@H]4O)cc3o2)cc1O [Diosmin]	10.4	0.451
CC1(C)CC[C@]2(C(=O)O)[C@H](O)C[C@]3(C)C(=CC[C@@H]4[C@@]5(C)CC[C@H](O)[C@@](C)(C=O)[C@@H]5CC[C@]43C)[C@@H]2C1 [Quillaic Acid]	11.8	-3.5
CC(C)=CCOc1c2ccoc2cc2oc(=O)ccc12 [Isoimperatorin]	8.55	14.4
Cn1c(=O)c2[nH]cnc2n(C)c1=O [Aminophylline]	0.52	-8.64
O=c1ccc2ccc(O)cc2o1 [7-Hydroxycoumarin]	1.86	-9.36

Among those listed so far, these have an NH in an aromatic ring:
Structure (SMILES)	cell growth inhibition ratio (A2780) [%]	cell growth inhibition ratio [1] [%]
COc1ccc2[nH]cc(CCNC(C)=O)c2c1 [Melatonine]	2.34	-47
Cn1c(=O)c2[nH]cnc2n(C)c1=O [Aminophylline]	0.52	-8.64

Remaining list, next part

Structure (SMILES)	cell growth inhibition ratio (A2780) [%]	cell growth inhibition ratio [1] [%]
CO[C@@]12[C@H](COC(N)=O)C3=C(C(=O)C(C)=C(N)C3=O)N1C[C@@H]1N[C@@H]12 [Mitomycin C]	91.7	83.6
OC[C@H]1O[C@@H](O[C@@H]2[C@@H](CO)OC(O)(CO)[C@H]2O)[C@H](O)[C@@H](O)[C@H]1O (mixture of isomers) [Lactulose]	5.94	-2.81
O=c1cc(-c2ccccc2)oc2ccccc12 [Flavone]	5.41	-21
CC(/C=C/C=C(\C)C(=O)O[C@@H]1O[C@H](CO)[C@@H](O)[C@H](O)[C@H]1O)=C\C=C\C=C(C)\C=C\C=C(/C)C(=O)O[C@@H]1O[C@H](CO[C@@H]2O[C@H](CO)[C@@H](O)[C@H](O)[C@H]2O)[C@@H](O)[C@H](O)[C@H]1O [Crocin II]	-18.7	-3.84
Oc1cc(O)c2c(c1)OC(c1ccc(O)c(O)c1)C(OC1(c3ccc(O)c(O)c3)Oc3cc(O)cc(O)c3C(O)C1O)C2 (centres undefined) [Proanthocyanidins]	5.29	-2.08
Nc1ncnc2c1ncn2[C@@H]1O[C@H](CO)[C@@H](O)[C@H]1O [Adenosine]	3.94	-5.26
COc1cc2c(=O)c3c(O)c([C@@H]4O[C@H](CO[C@@H]5OC[C@](O)(CO)[C@H]5O)[C@@H](O)[C@H](O)[C@H]4O)c(O)cc3oc2cc1O [polygalaxanthone III]	13	-2.75
C[C@@H]1O[C@@H](O[C@H]2[C@H](Oc3cc(O)c4c(c3)O[C@H](c3ccc(O)cc3)CC4=O)O[C@H](CO)[C@@H](O)[C@@H]2O)[C@H](O)[C@H](O)[C@H]1O [Naringin]	-6.93	23.1
C[C@]12CC[C@@H]3c4ccc(O)cc4CC[C@H]3[C@@H]1CC[C@@H]2O [Estradiol]	6.73	8.38
COc1c(O)cc2c(c1O)[C@@H]1O[C@H](CO)[C@@H](O)[C@H](O)[C@H]1OC2=O [Bengenin]	-7.83	4.16
CC(C)=CCC[C@](C)(O)[C@H]1CC[C@]2(C)[C@@H]1[C@H](O)C[C@@H]1[C@@]3(C)CC[C@H](O)C(C)(C)[C@@H]3[C@@H](O)C[C@]12C [Protopanaxatriol]	14.8	-0.144
COc1c(O[C@@H]2O[C@H](CO)[C@@H](O)[C@H](O)[C@H]2O)cc2occ(-c3ccc(O)cc3)c(=O)c2c1O [Tectoridin]	20.7	-3.87
O=C(/C=C/c1ccc(O)c2c1[C@H](C(=O)O)[C@@H](c1ccc(O)c(O)c1)O2)O[C@H](Cc1ccc(O)c(O)c1)C(=O)O [lithospermic acid]	7.44	-9.46
CC(C)(CO)C(O)C(=O)NCCCO (centres undefined) [Panthenol]	7.73	-14
CC1=CC(=O)CC(C)(C)C1=O [Ketoisophorone]	7.92	4.88
C[C@H]1[C@H](OC(=O)CCC(=O)O)O[C@@H]2O[C@@]3(C)CC[C@H]4[C@H](C)CC[C@@H]1[C@@]24OO3 [Artesunate]	75.3	13.3
C=C(C)[C@@H]1CC=C(CO)CC1 [Perillyl alcohol]	2.52	9.19
Cc1cc2nc3c(=O)[nH]c(=O)nc-3n(C[C@H](O)[C@H](O)[C@H](O)CO)c2cc1C [Riboflavin]	11.5	-16.5
CC(C)=CCC[C@](C)(O)[C@H]1CC[C@]2(C)[C@@H]1[C@H](O)C[C@@H]1[C@@]3(C)CC[C@H](O)C(C)(C)[C@@H]3[C@@H](O[C@@H]3O[C@H](CO)[C@@H](O)[C@H](O)[C@H]3O[C@@H]3O[C@@H](C)[C@H](O)[C@@H](O)[C@H]3O)C[C@]12C [Ginsenoside Rg2]	-2.11	-0.0738
O=C(O)c1cc(=O)c2cccc(O)c2[nH]1 [Xanthurenic Acid]	6.5	-21.7
O[C@H]1[C@H]2c3cc4c(cc3CN3CCC(=C[C@@H]1O)[C@H]23)OCO4 [Lycorine chloride]	76.6	67
CC(C)=CCC[C@](C)(O[C@@H]1O[C@H](CO[C@@H]2OC[C@@H](O)[C@H](O)[C@H]2O)[C@@H](O)[C@H](O)[C@H]1O)[C@H]1CC[C@]2(C)[C@@H]1[C@H](O)C[C@@H]1[C@@]3(C)CC[C@H](O[C@@H]4O[C@H](CO)[C@@H](O)[C@H](O)[C@H]4O[C@@H]4O[C@H](CO)[C@@H](O)[C@H](O)[C@H]4O)C(C)(C)[C@@H]3CC[C@]12C [Ginsenoside Rb3]	12.8	-1.51
COc1ccc(C[C@H]2COC(=O)[C@]2(O)Cc2ccc(O[C@@H]3O[C@H](CO)[C@@H](O)[C@H](O)[C@H]3O)c(OC)c2)cc1OC [tracheloside]	27.3	0.374
O=c1c(O)c(-c2cc(O)c(O)c(O)c2)oc2cc(O)cc(O)c12 [Myricetin]	19.4	8.71
C[C@H](O)[C@H](O)[C@@H](O)[C@@H](O)C=O [L-Rhamnose monohydrate]	2.37	0.83
CCCCCCCCCC(=O)N[C@H]1[C@H](Oc2c3cc4cc2Oc2ccc(cc2Cl)[C@@H](O[C@@H]2O[C@H](CO)[C@@H](O)[C@H](O)[C@H]2NC(C)=O)[C@@H]2NC(=O)[C@H](NC(=O)[C@@H]4NC(=O)[C@H]4NC(=O)[C@@H](Cc5ccc(c(Cl)c5)O3)NC(=O)[C@H](N)c3ccc(O)c(c3)Oc3cc(O)cc4c3)c3ccc(O)c(c3)-c3c(OC4O[C@H](CO)[C@@H](O)[C@H](O)[C@@H]4O)cc(O)cc3[C@@H](C(=O)O)NC2=O)O[C@H](CO)[C@@H](O)[C@@H]1O (some centres undefined) [Teicoplanin]	16.2	3.93

Record cards, from the list above:
`CC[C@@]1(O)C(=O)OCc2c1cc1n(c2=O)Cc2cc3c(CN(C)C)c(O)ccc3nc2-1` [Topotecan hydrochloride] as listed: cell growth inhibition ratio (A2780) [%]: 81.8; cell growth inhibition ratio [1] [%]: 76.8
`O=c1c(O)c(-c2cc(O)c(O)c(O)c2)oc2cc(O)cc(O)c12` [Myricetin] as listed: cell growth inhibition ratio (A2780) [%]: 19.4; cell growth inhibition ratio [1] [%]: 8.71
